Measurements: article PMC10899759
No constants are given. Whether binding was seen depends on the method and setting. In cells and extracts the contact can be indirect. Some entries that bind do so weakly or less than the wild type.

Protein sequences, listed by entry. Tags and fused reporters are not part of them. Lines headed by an entry give the natural chain unless they say otherwise; changes in a name come on top.
UniProt Q8NDV7: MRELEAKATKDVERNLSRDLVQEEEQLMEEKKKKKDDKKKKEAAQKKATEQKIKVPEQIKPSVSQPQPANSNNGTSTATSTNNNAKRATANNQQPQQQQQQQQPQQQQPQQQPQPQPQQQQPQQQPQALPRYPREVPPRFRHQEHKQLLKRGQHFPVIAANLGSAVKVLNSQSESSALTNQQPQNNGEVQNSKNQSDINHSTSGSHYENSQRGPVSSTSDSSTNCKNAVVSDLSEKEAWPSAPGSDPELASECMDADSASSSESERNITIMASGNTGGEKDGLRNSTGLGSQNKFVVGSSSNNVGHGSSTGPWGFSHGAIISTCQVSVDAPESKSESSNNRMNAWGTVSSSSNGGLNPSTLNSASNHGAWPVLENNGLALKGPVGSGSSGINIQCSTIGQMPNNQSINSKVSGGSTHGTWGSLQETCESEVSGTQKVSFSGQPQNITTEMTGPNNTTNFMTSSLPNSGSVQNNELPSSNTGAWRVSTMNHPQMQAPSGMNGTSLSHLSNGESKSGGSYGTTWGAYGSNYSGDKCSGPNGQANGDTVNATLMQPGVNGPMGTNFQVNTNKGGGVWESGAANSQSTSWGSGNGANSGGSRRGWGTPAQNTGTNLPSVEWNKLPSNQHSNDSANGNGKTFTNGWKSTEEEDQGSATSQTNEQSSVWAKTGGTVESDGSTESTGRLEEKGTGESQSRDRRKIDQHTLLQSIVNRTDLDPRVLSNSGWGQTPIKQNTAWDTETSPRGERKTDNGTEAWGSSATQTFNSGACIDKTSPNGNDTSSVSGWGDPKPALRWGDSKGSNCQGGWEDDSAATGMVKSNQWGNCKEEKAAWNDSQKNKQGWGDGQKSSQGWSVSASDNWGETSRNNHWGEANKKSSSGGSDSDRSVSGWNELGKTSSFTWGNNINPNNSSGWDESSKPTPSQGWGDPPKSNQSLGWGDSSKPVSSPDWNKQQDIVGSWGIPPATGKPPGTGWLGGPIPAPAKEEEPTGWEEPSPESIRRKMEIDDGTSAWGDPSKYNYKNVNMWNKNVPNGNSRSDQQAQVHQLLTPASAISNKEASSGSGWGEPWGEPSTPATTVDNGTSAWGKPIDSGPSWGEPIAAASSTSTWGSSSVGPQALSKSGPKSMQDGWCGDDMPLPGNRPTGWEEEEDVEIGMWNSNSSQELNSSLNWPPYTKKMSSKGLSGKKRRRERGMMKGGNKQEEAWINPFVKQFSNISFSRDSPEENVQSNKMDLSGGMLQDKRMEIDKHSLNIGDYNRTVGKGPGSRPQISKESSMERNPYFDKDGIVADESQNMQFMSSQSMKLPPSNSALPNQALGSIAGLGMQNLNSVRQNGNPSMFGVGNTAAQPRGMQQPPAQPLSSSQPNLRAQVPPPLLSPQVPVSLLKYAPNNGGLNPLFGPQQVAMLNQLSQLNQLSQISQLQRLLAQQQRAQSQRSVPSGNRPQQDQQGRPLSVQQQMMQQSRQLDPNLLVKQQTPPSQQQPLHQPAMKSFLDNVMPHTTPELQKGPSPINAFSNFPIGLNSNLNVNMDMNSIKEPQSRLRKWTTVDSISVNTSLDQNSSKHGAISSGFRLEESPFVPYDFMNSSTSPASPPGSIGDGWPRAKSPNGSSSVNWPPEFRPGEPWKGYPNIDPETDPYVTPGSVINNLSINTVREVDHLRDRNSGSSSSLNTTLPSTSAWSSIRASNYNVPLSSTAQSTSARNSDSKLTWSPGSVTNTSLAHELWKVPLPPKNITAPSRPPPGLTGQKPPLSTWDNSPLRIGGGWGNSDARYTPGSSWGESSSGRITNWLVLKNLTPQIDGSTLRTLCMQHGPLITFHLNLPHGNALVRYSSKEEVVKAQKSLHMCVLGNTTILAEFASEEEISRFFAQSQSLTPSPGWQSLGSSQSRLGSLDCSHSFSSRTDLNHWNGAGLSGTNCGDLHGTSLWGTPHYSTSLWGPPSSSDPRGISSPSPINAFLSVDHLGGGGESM
UniProt Q9UKV8: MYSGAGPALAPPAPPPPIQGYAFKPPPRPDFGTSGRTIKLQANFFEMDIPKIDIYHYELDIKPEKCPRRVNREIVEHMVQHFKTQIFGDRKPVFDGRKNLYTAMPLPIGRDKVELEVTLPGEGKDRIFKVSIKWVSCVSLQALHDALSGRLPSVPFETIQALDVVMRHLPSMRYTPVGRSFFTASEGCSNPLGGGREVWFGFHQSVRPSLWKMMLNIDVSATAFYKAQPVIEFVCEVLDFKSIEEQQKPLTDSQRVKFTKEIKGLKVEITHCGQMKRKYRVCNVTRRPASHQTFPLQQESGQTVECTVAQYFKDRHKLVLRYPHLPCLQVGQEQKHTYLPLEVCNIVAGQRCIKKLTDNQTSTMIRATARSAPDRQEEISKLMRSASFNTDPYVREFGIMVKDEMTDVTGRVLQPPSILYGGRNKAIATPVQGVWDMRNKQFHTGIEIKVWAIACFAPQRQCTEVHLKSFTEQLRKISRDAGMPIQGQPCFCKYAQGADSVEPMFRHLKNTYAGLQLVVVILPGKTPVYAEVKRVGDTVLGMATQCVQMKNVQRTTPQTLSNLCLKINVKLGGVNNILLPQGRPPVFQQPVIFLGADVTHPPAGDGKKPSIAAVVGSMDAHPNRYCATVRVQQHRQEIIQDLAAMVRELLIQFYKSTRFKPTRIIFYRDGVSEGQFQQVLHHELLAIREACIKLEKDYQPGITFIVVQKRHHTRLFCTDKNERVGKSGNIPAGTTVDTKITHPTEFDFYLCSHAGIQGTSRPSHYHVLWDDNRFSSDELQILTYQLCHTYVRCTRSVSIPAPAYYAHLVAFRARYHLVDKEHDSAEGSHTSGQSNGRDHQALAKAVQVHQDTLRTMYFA

How the values were obtained:
[1] = target: Trinucleotide repeat containing protein 6A (human (endogenous in HCT116)) (UniProt Q8NDV7); test: co-IP; reciprocal co-IP from WT HCT116 whole cell lysate at normal confluency (60%, Day 3), without RNase; anti-AGO2 or anti-TNRC6A antibody on Dynabeads Protein G, overnight at 4°C, washes with 400 mM NaCl; rabbit IgG as negative control
[2] = target: Argonaute 2 (human (endogenous in HCT116)) (UniProt Q9UKV8); test: as above
[3] = target: Argonaute 2 (human (endogenous in HCT116)) (UniProt Q9UKV8); test: condition: only cells grown to high density (near 200% or greater; co-IP at 350%, Day 7), where TNRC6A protein expression is reduced; co-IP; reciprocal co-IP from WT HCT116 whole cell lysate at high confluency (350%, Day 7), without RNase; anti-AGO2 or anti-TNRC6A antibody on Dynabeads Protein G, overnight at 4°C, washes with 400 mM NaCl; rabbit IgG as negative control

binding [1]	binding [2]	binding [3]	Substance
binds			Argonaute 2 (from UniProt Q9UKV8-1 1-859)
	binds	no binding	Trinucleotide repeat containing protein 6A (from UniProt Q8NDV7 1-1962)
